Laboratory results as given in the supplement of paper PMC11348887.
Structures can show the parent of a compound that is named as a salt. The list shows a part of the results. Small differences around the control level are noise.

Columns and labels:
Details in all cases: 5 µM; treatment: days 7-14 after plating, readout day 21
[1] = tested on: hPSC-derived cortical neurons (WA09); test: nucleus area z-score vs screen plate; higher = larger nuclei (more mature)
[2] = tested on: hPSC-derived cortical neurons (WA09); test: total neurite length per nucleus (MAP2) z-score; higher = more neurite growth
[3] = tested on: hPSC-derived cortical neurons (WA09); test: nucleus roundness z-score vs screen plate; higher = rounder nuclei (more mature)
[4] = tested on: hPSC-derived cortical neurons (WA09); test: KCl-induced FOS+/EGR-1+ double-positive nuclei fraction z-score (KCl minus unstimulated); higher = stronger activity-induced IEG response

Structure (SMILES)	nucleus area z-score [1]	total neurite length per nucleus (z-score) [2]	nucleus roundness z-score [3]	KCl-induced FOS+/EGR-1+ double-positive nuclei fraction z-score [4]
Cc1cccc([C@H](C)c2c[nH]cn2)c1C [Dexmedetomidine]	0.17	0.414	0.203	2.11
CN(C)C(=O)Oc1cc(OC(=O)N(C)C)cc(C(O)CNC(C)(C)C)c1 (configuration not stated) [Bambuterol HCl]	0.136	0.223	-0.372	-0.0154
NCCc1c[nH]c2ccc(O)cc12 [Serotonin HCl]	0.423	-0.0255	0.934	0.578
Cc1c(Cl)c(OCC(=O)N2CCN(C)CC2)nc2sc(C(=O)NC3CC3)c(N)c12	1.36	0.425	-0.223	-0.0616
NC(=O)c1cc(N2CC2)c([N+](=O)[O-])cc1[N+](=O)[O-]	0.27	0.145	0.244	-0.0616
Cc1cc(C(C#N)c2ccc(Cl)cc2)c(Cl)cc1NC(=O)c1cc(I)cc(I)c1O (configuration not stated) [Closantel]	0.445	-0.988	-0.662	-1.02
CN[C@@H]1[C@@H](O)[C@@H](O[C@@H]2[C@@H](O)[C@H](O[C@H]3O[C@H](CN)CC[C@H]3N)[C@@H](N)C[C@H]2N)OC[C@]1(C)O.CN[C@@H]1[C@@H](O)[C@@H](O[C@@H]2[C@@H](O)[C@H](O[C@H]3O[C@H]([C@@H](C)N)CC[C@H]3N)[C@@H](N)C[C@H]2N)OC[C@]1(C)O.CN[C@@H]1[C@@H](O)[C@@H](O[C@@H]2[C@@H](O)[C@H](O[C@H]3O[C@H]([C@@H](C)NC)CC[C@H]3N)[C@@H](N)C[C@H]2N)OC[C@]1(C)O [Gentamicin Sulfate]	-0.417	-0.0552	-0.0857	1.04
C[C@H]1CCC/C=C/[C@@H]2C[C@H](O)C[C@H]2[C@H](O)/C=C/C(=O)O1 [Brefeldin A]	-19.1	-5.99	-5.39	-1.44
